# Laboratory results from the supplement of paper PMC10849652.
# Amino acid sequences for entries named in this document (tags omitted). A change or cut given only in a name is not applied to a line headed by its entry.
# UniProt O95214: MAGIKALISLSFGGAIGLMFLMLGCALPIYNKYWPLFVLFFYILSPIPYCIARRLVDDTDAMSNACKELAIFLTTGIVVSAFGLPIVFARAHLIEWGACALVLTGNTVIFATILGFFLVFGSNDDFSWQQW
# UniProt P13473: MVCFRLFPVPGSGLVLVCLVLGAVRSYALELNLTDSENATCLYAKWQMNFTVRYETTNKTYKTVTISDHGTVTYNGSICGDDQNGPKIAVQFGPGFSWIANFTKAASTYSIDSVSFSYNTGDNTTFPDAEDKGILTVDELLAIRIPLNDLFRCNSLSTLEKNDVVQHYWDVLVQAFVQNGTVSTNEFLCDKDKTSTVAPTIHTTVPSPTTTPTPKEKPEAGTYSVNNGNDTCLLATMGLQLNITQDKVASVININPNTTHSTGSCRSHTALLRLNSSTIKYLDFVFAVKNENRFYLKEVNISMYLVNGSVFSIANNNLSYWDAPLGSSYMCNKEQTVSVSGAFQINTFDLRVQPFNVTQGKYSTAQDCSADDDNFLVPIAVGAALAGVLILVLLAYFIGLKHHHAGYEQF
# UniProt Q9UIQ6, whole entry, looked up: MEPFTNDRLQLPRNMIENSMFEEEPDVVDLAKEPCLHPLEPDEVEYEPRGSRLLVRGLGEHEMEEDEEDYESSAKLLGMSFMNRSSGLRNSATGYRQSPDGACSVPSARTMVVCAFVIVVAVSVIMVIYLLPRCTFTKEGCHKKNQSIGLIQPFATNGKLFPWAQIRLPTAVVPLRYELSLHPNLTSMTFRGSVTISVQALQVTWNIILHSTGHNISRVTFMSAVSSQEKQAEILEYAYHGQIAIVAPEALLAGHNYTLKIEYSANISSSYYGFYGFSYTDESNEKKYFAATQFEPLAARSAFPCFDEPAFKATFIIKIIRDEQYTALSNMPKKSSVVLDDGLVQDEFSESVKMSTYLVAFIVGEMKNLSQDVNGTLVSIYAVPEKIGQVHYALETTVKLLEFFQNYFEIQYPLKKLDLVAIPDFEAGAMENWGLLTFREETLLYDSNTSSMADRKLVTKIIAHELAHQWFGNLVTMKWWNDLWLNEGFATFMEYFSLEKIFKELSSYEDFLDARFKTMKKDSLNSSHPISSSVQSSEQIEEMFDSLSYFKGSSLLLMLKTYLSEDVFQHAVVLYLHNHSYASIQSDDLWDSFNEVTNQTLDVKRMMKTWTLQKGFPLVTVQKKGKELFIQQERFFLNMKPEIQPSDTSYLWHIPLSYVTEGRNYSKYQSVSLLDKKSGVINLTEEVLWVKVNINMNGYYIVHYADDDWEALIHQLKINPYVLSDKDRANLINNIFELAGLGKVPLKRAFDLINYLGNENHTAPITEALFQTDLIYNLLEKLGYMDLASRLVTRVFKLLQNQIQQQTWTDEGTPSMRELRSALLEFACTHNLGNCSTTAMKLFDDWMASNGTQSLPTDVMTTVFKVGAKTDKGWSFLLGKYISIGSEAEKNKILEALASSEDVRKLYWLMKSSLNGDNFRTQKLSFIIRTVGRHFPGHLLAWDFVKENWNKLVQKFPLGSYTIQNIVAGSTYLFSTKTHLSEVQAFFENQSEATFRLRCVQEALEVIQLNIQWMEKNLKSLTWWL
# UniProt Q9BU23: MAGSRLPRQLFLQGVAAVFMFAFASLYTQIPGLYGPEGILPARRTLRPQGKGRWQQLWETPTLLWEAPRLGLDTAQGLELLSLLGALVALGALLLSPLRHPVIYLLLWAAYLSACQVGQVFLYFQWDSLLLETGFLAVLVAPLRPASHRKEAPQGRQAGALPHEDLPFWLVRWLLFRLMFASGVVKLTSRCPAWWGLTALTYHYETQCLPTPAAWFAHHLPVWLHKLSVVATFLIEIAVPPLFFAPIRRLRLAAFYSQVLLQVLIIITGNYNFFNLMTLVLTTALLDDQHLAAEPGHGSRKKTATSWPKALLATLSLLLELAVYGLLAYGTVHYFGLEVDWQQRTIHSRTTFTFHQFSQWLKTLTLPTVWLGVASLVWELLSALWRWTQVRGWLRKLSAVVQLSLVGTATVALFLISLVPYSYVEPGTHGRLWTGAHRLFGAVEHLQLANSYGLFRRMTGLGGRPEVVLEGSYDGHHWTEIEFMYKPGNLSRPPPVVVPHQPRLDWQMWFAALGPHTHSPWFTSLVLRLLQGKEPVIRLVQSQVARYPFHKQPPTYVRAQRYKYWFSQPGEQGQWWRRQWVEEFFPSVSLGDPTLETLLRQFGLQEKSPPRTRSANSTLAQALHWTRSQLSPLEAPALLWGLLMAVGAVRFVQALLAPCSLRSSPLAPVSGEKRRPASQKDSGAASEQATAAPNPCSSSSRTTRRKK
# UniProt Q03252: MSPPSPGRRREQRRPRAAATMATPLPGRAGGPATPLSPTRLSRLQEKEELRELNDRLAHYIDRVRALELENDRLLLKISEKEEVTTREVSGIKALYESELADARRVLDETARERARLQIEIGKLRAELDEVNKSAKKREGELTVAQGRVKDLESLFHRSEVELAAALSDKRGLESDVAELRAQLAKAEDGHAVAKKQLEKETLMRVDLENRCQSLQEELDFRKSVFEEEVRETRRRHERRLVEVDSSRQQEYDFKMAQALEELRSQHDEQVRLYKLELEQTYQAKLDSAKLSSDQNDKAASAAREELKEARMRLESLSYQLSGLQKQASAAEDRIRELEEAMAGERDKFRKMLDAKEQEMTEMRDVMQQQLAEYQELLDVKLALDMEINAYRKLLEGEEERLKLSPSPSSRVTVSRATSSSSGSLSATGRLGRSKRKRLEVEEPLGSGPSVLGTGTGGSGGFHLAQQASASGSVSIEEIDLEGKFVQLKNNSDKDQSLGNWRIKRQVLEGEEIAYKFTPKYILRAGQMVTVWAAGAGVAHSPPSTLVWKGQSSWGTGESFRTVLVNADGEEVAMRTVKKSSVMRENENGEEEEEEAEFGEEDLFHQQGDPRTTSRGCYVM
# UniProt Q9Y2U8: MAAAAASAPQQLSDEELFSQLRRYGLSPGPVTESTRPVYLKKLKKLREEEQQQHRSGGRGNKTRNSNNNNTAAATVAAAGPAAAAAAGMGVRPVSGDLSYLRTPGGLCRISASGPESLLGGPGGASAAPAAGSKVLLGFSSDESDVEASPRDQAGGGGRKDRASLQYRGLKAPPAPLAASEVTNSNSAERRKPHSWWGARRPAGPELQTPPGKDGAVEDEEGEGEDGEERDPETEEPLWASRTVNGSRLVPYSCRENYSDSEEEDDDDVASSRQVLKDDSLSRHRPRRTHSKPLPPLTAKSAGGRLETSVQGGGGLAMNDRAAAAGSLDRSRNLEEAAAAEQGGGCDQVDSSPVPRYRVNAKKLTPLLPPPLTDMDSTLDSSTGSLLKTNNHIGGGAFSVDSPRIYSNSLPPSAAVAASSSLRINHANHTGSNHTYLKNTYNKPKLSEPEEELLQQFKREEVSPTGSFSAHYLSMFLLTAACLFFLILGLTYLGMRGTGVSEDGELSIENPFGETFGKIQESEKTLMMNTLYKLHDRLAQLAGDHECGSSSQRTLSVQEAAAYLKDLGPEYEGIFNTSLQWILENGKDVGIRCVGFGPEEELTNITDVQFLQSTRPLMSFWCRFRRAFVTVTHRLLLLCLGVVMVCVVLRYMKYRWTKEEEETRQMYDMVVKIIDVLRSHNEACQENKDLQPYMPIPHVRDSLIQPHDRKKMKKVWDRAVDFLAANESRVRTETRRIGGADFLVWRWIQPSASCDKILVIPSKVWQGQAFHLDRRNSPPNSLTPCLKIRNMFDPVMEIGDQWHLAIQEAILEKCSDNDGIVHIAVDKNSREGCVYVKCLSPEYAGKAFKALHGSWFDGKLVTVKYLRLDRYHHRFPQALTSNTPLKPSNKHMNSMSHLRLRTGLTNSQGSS
# UniProt Q86UP2: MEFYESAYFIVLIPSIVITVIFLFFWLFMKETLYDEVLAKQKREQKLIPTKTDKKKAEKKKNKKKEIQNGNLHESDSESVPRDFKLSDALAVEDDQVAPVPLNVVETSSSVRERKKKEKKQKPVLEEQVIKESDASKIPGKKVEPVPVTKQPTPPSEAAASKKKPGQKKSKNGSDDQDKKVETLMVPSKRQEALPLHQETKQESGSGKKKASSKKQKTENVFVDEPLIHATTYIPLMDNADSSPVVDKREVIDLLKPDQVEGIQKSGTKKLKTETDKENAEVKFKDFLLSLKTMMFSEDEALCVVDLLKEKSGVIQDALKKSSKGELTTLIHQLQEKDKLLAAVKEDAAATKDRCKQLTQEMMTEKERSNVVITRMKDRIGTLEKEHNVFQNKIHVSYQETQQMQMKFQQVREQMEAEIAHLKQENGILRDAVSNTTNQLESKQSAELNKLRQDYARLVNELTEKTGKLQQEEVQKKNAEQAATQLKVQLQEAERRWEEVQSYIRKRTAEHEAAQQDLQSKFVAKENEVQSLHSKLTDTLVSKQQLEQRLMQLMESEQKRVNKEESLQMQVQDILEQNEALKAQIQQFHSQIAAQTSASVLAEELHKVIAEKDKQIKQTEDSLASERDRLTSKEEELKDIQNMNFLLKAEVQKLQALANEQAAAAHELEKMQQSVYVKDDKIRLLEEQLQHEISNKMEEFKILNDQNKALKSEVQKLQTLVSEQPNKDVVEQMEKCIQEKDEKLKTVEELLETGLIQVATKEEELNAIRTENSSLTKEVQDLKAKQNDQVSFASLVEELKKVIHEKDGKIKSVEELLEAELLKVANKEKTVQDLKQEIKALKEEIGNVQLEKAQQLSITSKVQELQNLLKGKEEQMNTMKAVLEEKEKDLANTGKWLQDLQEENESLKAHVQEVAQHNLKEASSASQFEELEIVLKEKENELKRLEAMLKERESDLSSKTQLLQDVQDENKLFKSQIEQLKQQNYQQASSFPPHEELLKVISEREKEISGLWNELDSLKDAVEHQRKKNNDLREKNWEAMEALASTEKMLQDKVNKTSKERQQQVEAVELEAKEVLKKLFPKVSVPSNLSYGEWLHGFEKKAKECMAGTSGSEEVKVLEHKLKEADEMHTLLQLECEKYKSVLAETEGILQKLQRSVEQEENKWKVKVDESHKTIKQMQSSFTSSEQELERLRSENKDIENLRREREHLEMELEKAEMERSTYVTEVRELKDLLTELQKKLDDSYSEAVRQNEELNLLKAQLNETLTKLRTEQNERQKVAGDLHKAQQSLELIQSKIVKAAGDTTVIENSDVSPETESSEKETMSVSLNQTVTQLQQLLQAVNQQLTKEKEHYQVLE
# UniProt Q9UHB6: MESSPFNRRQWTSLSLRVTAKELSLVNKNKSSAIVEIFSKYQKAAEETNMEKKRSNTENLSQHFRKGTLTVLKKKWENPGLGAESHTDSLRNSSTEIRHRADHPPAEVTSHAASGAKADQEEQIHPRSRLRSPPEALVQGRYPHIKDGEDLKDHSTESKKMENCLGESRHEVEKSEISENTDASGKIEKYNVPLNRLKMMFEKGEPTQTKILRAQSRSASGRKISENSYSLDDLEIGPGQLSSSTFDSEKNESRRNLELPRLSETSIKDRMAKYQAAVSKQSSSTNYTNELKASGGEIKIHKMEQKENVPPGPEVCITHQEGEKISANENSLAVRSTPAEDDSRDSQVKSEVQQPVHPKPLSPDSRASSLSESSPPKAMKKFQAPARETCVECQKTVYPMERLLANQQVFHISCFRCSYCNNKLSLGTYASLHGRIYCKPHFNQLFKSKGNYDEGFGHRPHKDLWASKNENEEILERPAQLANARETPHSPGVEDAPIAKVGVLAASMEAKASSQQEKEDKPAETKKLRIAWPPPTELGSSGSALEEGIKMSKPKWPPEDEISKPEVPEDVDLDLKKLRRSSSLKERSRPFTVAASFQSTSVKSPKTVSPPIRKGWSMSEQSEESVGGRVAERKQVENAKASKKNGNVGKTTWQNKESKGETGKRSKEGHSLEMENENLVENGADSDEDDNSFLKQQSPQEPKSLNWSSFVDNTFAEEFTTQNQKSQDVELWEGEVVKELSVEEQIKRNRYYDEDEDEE
# UniProt Q14739: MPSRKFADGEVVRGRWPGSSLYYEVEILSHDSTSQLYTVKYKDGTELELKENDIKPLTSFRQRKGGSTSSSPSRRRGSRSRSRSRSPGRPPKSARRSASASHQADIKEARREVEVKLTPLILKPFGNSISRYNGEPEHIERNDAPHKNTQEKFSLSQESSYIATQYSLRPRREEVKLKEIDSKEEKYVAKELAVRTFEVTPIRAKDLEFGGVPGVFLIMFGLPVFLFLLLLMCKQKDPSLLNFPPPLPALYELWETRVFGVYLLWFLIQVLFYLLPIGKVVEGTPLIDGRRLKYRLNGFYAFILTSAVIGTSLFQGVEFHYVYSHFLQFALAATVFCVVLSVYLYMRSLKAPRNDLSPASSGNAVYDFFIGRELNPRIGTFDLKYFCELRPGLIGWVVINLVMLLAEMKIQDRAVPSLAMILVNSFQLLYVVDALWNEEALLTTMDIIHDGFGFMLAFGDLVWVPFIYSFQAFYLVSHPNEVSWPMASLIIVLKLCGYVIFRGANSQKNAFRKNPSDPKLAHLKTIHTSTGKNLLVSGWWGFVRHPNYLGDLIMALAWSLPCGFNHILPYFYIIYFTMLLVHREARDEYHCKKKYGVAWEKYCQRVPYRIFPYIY
# This is one part of the list.
# What was measured:
# Experiment in all cases: log2 fold change, soluble protein after heating vs DMSO (PISA); higher = thermal stabilisation; K562 cells, 10 uM, 30 min; active = over 0.2 and 3.5 SD of the protein, either way, in both replicates (recomputed)
# [1] = compound: CC[C@@H]1C(=O)N(C)c2cnc(Nc3ccc(C(=O)NC4CCN(C)CC4)cc3OC)nc2N1C1CCCC1
# Procedure, shortened: (§1)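 Aliquots of K562 cells (2×10^6 cells/mL) treated with 10 μM compound for 30 min were heated for 3 min over 48°C-58°C. After pooling and extraction in PBS with 0.5% NP-40 at 4°C, soluble protein from a 21,000xg, 90 min spin was quantified by TMTpro 16plex LC-MS/MS with channel sums equalised. Thermal stability is expressed against control samples, from duplicates, as a log2 fold change.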
# volasertib = compound: CC[C@@H]1C(=O)N(C)c2cnc(Nc3ccc(C(=O)N[C@H]4CC[C@H](N5CCN(CC6CC6)CC5)CC4)cc3OC)nc2N1C(C)C [volasertib]
# Procedure, shortened: as §1
# [2] = compound: CC[C@H](C)N1C=C(C2=C(C=C(C=C21)C3=CN=C(C=C3)N4CCNCC4)C(=O)NCC5=C(C=C(NC5=O)C)C)C
# Procedure, shortened: as §1
# [3] = compound: CN(C)CC(=O)Nc1ccc2[nH]c(=O)c3ccccc3c2c1
# Procedure, shortened: as §1
# rosiglitazone = compound: CN(CCOC1=CC=C(C=C1)C[C@H]2C(=O)NC(=O)S2)C3=CC=CC=N3 (racemic) [rosiglitazone]
# Procedure, shortened: as §1
# [4] = compound: CN1C2=C(C3=C1C(=O)N(N=C3)CC4=CC(=CC=C4)N)SC(=C2)S(=O)C
# Procedure, shortened: as §1
# saracatinib = compound: CN1CCN(CCOc2cc(OC3CCOCC3)c3c(Nc4c(Cl)ccc5c4OCO5)ncnc3c2)CC1 [saracatinib]
# Procedure, shortened: as §1
# alvocidib = compound: CN1CC[C@H](c2c(O)cc(O)c3c(=O)cc(-c4ccccc4Cl)oc23)[C@H](O)C1 [alvocidib]
# Procedure, shortened: as §1
# Tubastatin A = compound: CN1CCc2c(c3ccccc3n2Cc2ccc(C(=O)NO)cc2)C1 [Tubastatin A]
# Procedure, shortened: as §1
# defactinib = compound: CNC(=O)c1ccc(Nc2ncc(C(F)(F)F)c(NCc3nccnc3N(C)S(C)(=O)=O)n2)cc1 [defactinib]
# Procedure, shortened: as §1
# rucaparib = compound: CNCc1ccc(-c2[nH]c3cc(F)cc4c3c2CCNC4=O)cc1 [rucaparib]
# Procedure, shortened: as §1
# [5] = compound: CNc1nc(-c2ccc3c(N)n[nH]c3c2)cc(N2C[C@@H](C(=O)NC3CCCCC3)CC[C@H]2C)n1
# Procedure, shortened: as §1
# encorafenib = compound: COC(=O)N[C@@H](C)CNc1nccc(-c2cn(C(C)C)nc2-c2cc(Cl)cc(NS(C)(=O)=O)c2F)n1 [encorafenib]
# Procedure, shortened: as §1
# [6] = compound: COC(=O)[C@H](CCSC)NC(=O)C1=C(C=C(C=C1)NC[C@H](CS)N)C2=CC=CC=C2
# Procedure, shortened: as §1
# epoxomicin = compound: CC[C@H](C)[C@@H](C(=O)N[C@@H]([C@@H](C)O)C(=O)N[C@@H](CC(C)C)C(=O)[C@]1(CO1)C)NC(=O)[C@H]([C@@H](C)CC)N(C)C(=O)C [epoxomicin]
# Procedure, shortened: as §1
# [7] = compound: CCn1cc(-c2ccnc3[nH]c(-c4cccc(CN(C)C)c4)cc23)c(-c2ccc(NC(=O)N(C)C)cc2)n1
# Procedure, shortened: as §1
# [8] = compound: CN1CCC(CNc2ccc3ncc(-c4cccc(OC(F)(F)F)c4)n3n2)CC1
# Procedure, shortened: as §1
# sotrastaurin = compound: CN1CCN(c2nc(C3=C(c4c[nH]c5ccccc45)C(=O)NC3=O)c3ccccc3n2)CC1 [sotrastaurin]
# Procedure, shortened: as §1
# [9] = compound: CNC(=O)C1=CC=CC=C1NC2=NC(=NC=C2Cl)NC3=C(C=C(C=C3)N4CCOCC4)OC
# Procedure, shortened: as §1
# [10] = compound: CCn1c(C(=O)N(C2CC2)C2CC2)cc2c3c(ncn3C)c(Nc3cc(C)n(C)n3)nc21
# Procedure, shortened: as §1
Target,log2 fold change [1],log2 fold change (volasertib),log2 fold change [2],log2 fold change [3],log2 fold change (rosiglitazone),log2 fold change [4],log2 fold change (saracatinib),log2 fold change (alvocidib),log2 fold change (Tubastatin A),log2 fold change (defactinib),log2 fold change (rucaparib),log2 fold change [5],log2 fold change (encorafenib),log2 fold change [6],log2 fold change (epoxomicin),log2 fold change [7],log2 fold change [8],log2 fold change (sotrastaurin),log2 fold change [9],log2 fold change [10]
LEPROTL1 isoform 2 (UniProt O95214),inactive: -0.086,inactive: -0.151,inactive: -0.234,inactive: 0.164,inactive: -0.201,inactive: -0.031,inactive: 0.004,inactive: -0.071,inactive: -0.261,inactive: -0.068,inactive: -0.216,inactive: 0.028,inactive: 0.163,inactive: 0.104,–,–,–,–,–,–
LPCAT3 (UniProt Q6P1A2),inactive: 0.146,inactive: -0.026,inactive: -0.008,inactive: 0.087,–,inactive: -0.093,inactive: -0.048,–,inactive: 0,inactive: 0,inactive: -0.074,inactive: 0.138,inactive: -0.026,inactive: -0.021,inactive: -0.005,inactive: -0.063,inactive: -0.202,inactive: -0.14,inactive: 0.093,–
LAMP2 (UniProt P13473),inactive: 0.018,inactive: 0.069,inactive: -0.023,inactive: 0.059,–,inactive: -0.016,inactive: 0.078,–,inactive: -0.061,inactive: -0.047,inactive: -0.055,inactive: -0.088,inactive: -0.026,inactive: 0.062,inactive: 0.083,inactive: 0.019,inactive: -0.032,inactive: 0.123,inactive: 0.105,–
L2HGDH (UniProt Q9H9P8),inactive: -0.088,inactive: -0.014,inactive: 0.006,inactive: -0.027,–,inactive: -0.11,inactive: -0.009,–,inactive: -0.002,inactive: -0.011,inactive: -0.005,inactive: 0.012,inactive: -0.022,inactive: 0.049,inactive: -0.02,inactive: -0.067,active: -0.325,inactive: 0.091,inactive: -0.017,–
LPCAT2 (UniProt Q7L5N7),inactive: -0.026,inactive: -0.173,–,inactive: 0.027,inactive: 0.019,inactive: 0.053,inactive: -0.036,inactive: 0.03,inactive: 0.018,inactive: -0.034,inactive: -0.062,inactive: 0.075,inactive: 0.076,inactive: 0.112,inactive: -0.131,inactive: -0.067,inactive: 0.068,inactive: 0.031,inactive: 0.08,inactive: 0.077
LMBRD1 (UniProt Q9NUN5),inactive: -0.073,inactive: 0.032,inactive: 0.015,inactive: 0.015,–,inactive: 0.133,inactive: 0.154,–,inactive: 0.098,inactive: 0.047,inactive: -0.023,inactive: -0.173,inactive: 0.053,inactive: -0.057,inactive: 0.065,inactive: -0.015,inactive: -0.351,inactive: 0.023,inactive: 0.052,–
LNPEP (UniProt Q9UIQ6),inactive: 0.004,inactive: -0.182,inactive: -0.016,inactive: 0.012,–,inactive: -0.025,inactive: 0.048,–,inactive: -0.001,inactive: -0.054,inactive: -0.014,inactive: -0.02,inactive: -0.008,inactive: 0.012,inactive: 0.014,inactive: -0.02,inactive: 0.024,inactive: 0.037,inactive: -0.01,–
LEO1 (UniProt Q8WVC0),inactive: -0.021,active: -0.402,inactive: -0.013,inactive: 0.121,–,inactive: -0.033,inactive: -0.047,–,inactive: 0.061,inactive: -0.211,inactive: -0.151,inactive: -0.055,inactive: -0.033,inactive: -0.082,inactive: -0.001,inactive: -0.051,inactive: -0.048,inactive: -0.085,inactive: -0.039,–
LEMD2 (UniProt Q8NC56),inactive: -0.212,active: -0.422,inactive: 0.034,inactive: 0.091,–,inactive: -0.006,inactive: -0.048,–,inactive: 0.014,inactive: -0.126,inactive: 0.11,inactive: 0.041,inactive: 0.023,inactive: 0.013,inactive: -0.002,inactive: 0.028,active: -0.338,inactive: 0.004,inactive: -0.058,–
LMF2 (UniProt Q9BU23),inactive: -0.109,active: -0.332,inactive: -0.027,inactive: -0.017,–,inactive: -0.007,inactive: 0.006,–,inactive: 0.048,inactive: 0,inactive: 0.082,inactive: -0.02,inactive: 0.052,inactive: -0.04,inactive: 0,inactive: 0.12,inactive: -0.035,inactive: -0.043,inactive: 0.007,–
LIAS (UniProt O43766),inactive: 0.051,inactive: 0.055,inactive: -0.021,inactive: -0.043,–,inactive: -0.052,inactive: 0.049,–,inactive: -0.056,inactive: 0.018,inactive: 0.017,inactive: -0.027,inactive: 0,inactive: 0.022,inactive: -0.011,inactive: -0.044,inactive: 0.057,active: 0.271,inactive: 0.029,–
LMNB2 (UniProt Q03252),inactive: 0.027,inactive: -0.077,inactive: 0.024,inactive: -0.033,–,inactive: -0.01,inactive: -0.031,–,inactive: 0.02,inactive: -0.201,inactive: -0.085,inactive: -0.073,inactive: -0.009,inactive: 0.049,inactive: 0.028,inactive: 0.043,inactive: 0.014,inactive: -0.127,inactive: 0.027,–
LONP2 (UniProt Q86WA8),inactive: 0.141,inactive: 0.16,inactive: 0.063,inactive: -0.106,–,inactive: 0.054,inactive: 0.006,–,inactive: 0.135,inactive: -0.12,inactive: 0.067,inactive: -0.079,inactive: 0.13,inactive: 0.007,inactive: 0.336,inactive: 0.034,inactive: 0.17,inactive: 0.003,inactive: 0,–
LEMD3 (UniProt Q9Y2U8),inactive: -0.096,active: -0.324,inactive: -0.063,inactive: 0.123,–,inactive: -0.016,inactive: -0.014,–,inactive: 0.062,inactive: -0.111,inactive: 0.027,inactive: 0.039,inactive: 0.026,inactive: -0.075,inactive: 0.095,inactive: 0.003,inactive: -0.081,inactive: 0.013,inactive: 0.068,–
LARP1 (UniProt Q6PKG0),inactive: 0.098,inactive: 0.071,inactive: 0.047,inactive: -0.054,–,inactive: 0.131,inactive: -0.023,–,inactive: 0.059,inactive: 0.089,inactive: 0.11,inactive: 0.004,inactive: 0.039,inactive: 0.01,inactive: -0.034,inactive: 0.016,inactive: 0.025,inactive: -0.029,inactive: 0.05,–
KTN1 (UniProt Q86UP2),inactive: 0.039,inactive: -0.242,inactive: 0.028,inactive: 0.006,–,inactive: 0.127,inactive: 0.001,–,inactive: 0.032,inactive: 0.109,inactive: 0.155,inactive: -0.079,inactive: 0.137,inactive: -0.053,inactive: 0.037,inactive: 0.084,inactive: -0.006,inactive: -0.07,inactive: -0.12,–
LIMA1 isoform 4 (UniProt Q9UHB6),inactive: -0.006,inactive: -0.115,inactive: -0.021,inactive: -0.053,–,inactive: -0.006,inactive: 0.046,–,inactive: 0.014,inactive: -0.015,inactive: 0.074,inactive: -0.089,inactive: 0.017,inactive: 0.01,inactive: 0.003,inactive: 0,inactive: 0.086,inactive: -0.109,inactive: -0.033,–
LRRC14 (UniProt Q15048),inactive: -0.004,inactive: -0.219,inactive: 0.251,inactive: 0.121,inactive: -0.007,inactive: 0.013,inactive: -0.02,–,inactive: 0.089,inactive: 0.006,inactive: 0.092,inactive: -0.003,inactive: -0.049,inactive: 0.086,–,–,–,–,inactive: 0.031,inactive: -0.187
LBR (UniProt Q14739),inactive: -0.036,active: 0.552,inactive: 0.051,inactive: 0.056,–,inactive: -0.026,inactive: 0.008,–,inactive: -0.008,inactive: -0.022,inactive: 0.164,inactive: 0.116,inactive: 0.058,inactive: -0.089,inactive: 0.022,inactive: -0.071,inactive: 0.099,inactive: 0.036,inactive: -0.02,–

# Reprinted from the results shown (two entries):
Target,log2 fold change [1],log2 fold change (volasertib),log2 fold change [2],log2 fold change [3],log2 fold change (rosiglitazone),log2 fold change [4],log2 fold change (saracatinib),log2 fold change (alvocidib),log2 fold change (Tubastatin A),log2 fold change (defactinib),log2 fold change (rucaparib),log2 fold change [5],log2 fold change (encorafenib),log2 fold change [6],log2 fold change (epoxomicin),log2 fold change [7],log2 fold change [8],log2 fold change (sotrastaurin),log2 fold change [9],log2 fold change [10]
KTN1 (UniProt Q86UP2),inactive: 0.039,inactive: -0.242,inactive: 0.028,inactive: 0.006,–,inactive: 0.127,inactive: 0.001,–,inactive: 0.032,inactive: 0.109,inactive: 0.155,inactive: -0.079,inactive: 0.137,inactive: -0.053,inactive: 0.037,inactive: 0.084,inactive: -0.006,inactive: -0.07,inactive: -0.12,–
LIMA1 isoform 4 (UniProt Q9UHB6),inactive: -0.006,inactive: -0.115,inactive: -0.021,inactive: -0.053,–,inactive: -0.006,inactive: 0.046,–,inactive: 0.014,inactive: -0.015,inactive: 0.074,inactive: -0.089,inactive: 0.017,inactive: 0.01,inactive: 0.003,inactive: 0,inactive: 0.086,inactive: -0.109,inactive: -0.033,–
